Results deposited as PubChem BioAssay AID1159578 (Peter MacCallum Cancer Centre, 2015).

Purpose: 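Knock-downs that alter how fast lymphatic endothelial cells migrate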 (primary screen)
Cell system: human lymphatic endothelial cells
Reagent: siRNA pool against human genes, 40 nM
Timing: 48 h after transfection
Measurement: 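Cells stained with dye and imaged after a scratch; covered wound area and nuclei counted, duplicates averaged, migration set against mock wells and turned into a robust z-score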
Reading the numbers: migration robust z-score: higher = faster migration into the scratch; nuclei per well: higher = more cells in the well
Call rule: 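Pools averaging fewer than 3300 nuclei are never called; remaining pools count as changed when migration robust z lies outside -2 to 2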
Calls: active = migration changed; inactive = no migration change, or too few cells
This is a random part of about 18,000 deposited reagents. About 1,030 of them (5.7%) count as active. 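Inactive calls also include pools with fewer than 3300 nuclei, whose migration was not assessed.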 Raw values are not corrected between plates. Not all columns of the deposit are shown.

SLX4IP (SLX4 interacting protein) gave migration robust z-score -0.04; nuclei per well, duplicate mean 5832; inactive.
Depletion of OR3A1 (olfactory receptor family 3 subfamily A member 1) came out at: migration robust z-score 1.31; nuclei per well, duplicate mean 6493; inactive.
C8B (complement C8 beta chain) showed migration robust z-score 0.9; nuclei per well, duplicate mean 5691; inactive.
OR2T1 (olfactory receptor family 2 subfamily T member 1) showed migration robust z-score 0.28; nuclei per well, duplicate mean 5448; inactive.
HUS1 (HUS1 checkpoint clamp component) scored migration robust z-score 1.17; nuclei per well, duplicate mean 4784; inactive.
ART3 (ADP-ribosyltransferase 3 (inactive)) scored migration robust z-score 0.26; nuclei per well, duplicate mean 6294; inactive.
LETM2 gave migration robust z-score -0.68; nuclei per well, duplicate mean 6150; inactive.
KLK13 (kallikrein related peptidase 13) gave migration robust z-score 0.31; nuclei per well, duplicate mean 5470; inactive.
LIPK (lipase family member K) gave migration robust z-score 0.5; nuclei per well, duplicate mean 5593; inactive.
CYP2C18 (cytochrome P450 family 2 subfamily C member 18) scored migration robust z-score -0.2; nuclei per well, duplicate mean 5778; inactive.

Part of the list above, set out differently.
SLX4IP (SLX4 interacting protein)
- migration robust z-score: -0.04
- nuclei per well, duplicate mean: 5832
- activity call: inactive

OR3A1 (olfactory receptor family 3 subfamily A member 1)
- migration robust z-score: 1.31
- nuclei per well, duplicate mean: 6493
- activity call: inactive

Continued:
Knock-down of CDH7 (cadherin 7) resulted in: migration robust z-score -1.38; nuclei per well, duplicate mean 6214; inactive.
With knock-down of SQLE (squalene epoxidase) the results were migration robust z-score -0.5; nuclei per well, duplicate mean 6037; inactive.
Against CACNA1A (calcium voltage-gated channel subunit alpha1 A), the values are migration robust z-score -1.19; nuclei per well, duplicate mean 5302; inactive.
Depletion of PRXL2B (peroxiredoxin like 2B) resulted in: migration robust z-score -1.21; nuclei per well, duplicate mean 5824; inactive.
After knock-down of ANP32B (acidic nuclear phosphoprotein 32 family member B) the results were migration robust z-score 1.04; nuclei per well, duplicate mean 6203; inactive.
For EMC3 (ER membrane protein complex subunit 3), the entry reads migration robust z-score -0.99; nuclei per well, duplicate mean 6220; inactive.
Against TSG101 (tumor susceptibility 101), the entry reads migration robust z-score 0.31; nuclei per well, duplicate mean 5031; inactive.
Against DFFB (DNA fragmentation factor subunit beta), the entry reads migration robust z-score 0.05; nuclei per well, duplicate mean 6085; inactive.
After knock-down of BTBD1 (BTB domain containing 1) the results were migration robust z-score -0.5; nuclei per well, duplicate mean 7166; inactive.
Against RHOBTB2 (Rho related BTB domain containing 2), the values are migration robust z-score -0.28; nuclei per well, duplicate mean 7504; inactive.
SRF (serum response factor) scored migration robust z-score 0.36; nuclei per well, duplicate mean 4576; inactive.
With knock-down of PPARA (peroxisome proliferator activated receptor alpha) the results were migration robust z-score 0.73; nuclei per well, duplicate mean 5682; inactive.
NUDT5 (nudix hydrolase 5) scored migration robust z-score 0.46; nuclei per well, duplicate mean 5406; inactive.
MAT2A (methionine adenosyltransferase 2A) scored migration robust z-score -0.83; nuclei per well, duplicate mean 4237; inactive.
RAD51D (RAD51 paralog D) scored migration robust z-score 0.08; nuclei per well, duplicate mean 6821; inactive.
SLAMF8 (SLAM family member 8) scored migration robust z-score -0.48; nuclei per well, duplicate mean 4916; inactive.
After knock-down of NAF1 (nuclear assembly factor 1 ribonucleoprotein) the results were migration robust z-score 0.12; nuclei per well, duplicate mean 6476; inactive.
